Data published in patent US9822148B2 (HOYA CORPORATION, priority 2012, dated 2017).
Plain letter strings leave the end groups untold.

Assay: peptide made by a vendor
Conditions: whole synthesis

GAASRTYLHELI (Random peptide)
final HPLC purity: 90%<
